# Data reported in publication PMC10868759.
# Protein sequences, listed by entry. Tags and fused reporters are not part of them. Lines headed by an entry give the natural chain unless they say otherwise; changes in a name come on top.
# UniProt F4IIM1: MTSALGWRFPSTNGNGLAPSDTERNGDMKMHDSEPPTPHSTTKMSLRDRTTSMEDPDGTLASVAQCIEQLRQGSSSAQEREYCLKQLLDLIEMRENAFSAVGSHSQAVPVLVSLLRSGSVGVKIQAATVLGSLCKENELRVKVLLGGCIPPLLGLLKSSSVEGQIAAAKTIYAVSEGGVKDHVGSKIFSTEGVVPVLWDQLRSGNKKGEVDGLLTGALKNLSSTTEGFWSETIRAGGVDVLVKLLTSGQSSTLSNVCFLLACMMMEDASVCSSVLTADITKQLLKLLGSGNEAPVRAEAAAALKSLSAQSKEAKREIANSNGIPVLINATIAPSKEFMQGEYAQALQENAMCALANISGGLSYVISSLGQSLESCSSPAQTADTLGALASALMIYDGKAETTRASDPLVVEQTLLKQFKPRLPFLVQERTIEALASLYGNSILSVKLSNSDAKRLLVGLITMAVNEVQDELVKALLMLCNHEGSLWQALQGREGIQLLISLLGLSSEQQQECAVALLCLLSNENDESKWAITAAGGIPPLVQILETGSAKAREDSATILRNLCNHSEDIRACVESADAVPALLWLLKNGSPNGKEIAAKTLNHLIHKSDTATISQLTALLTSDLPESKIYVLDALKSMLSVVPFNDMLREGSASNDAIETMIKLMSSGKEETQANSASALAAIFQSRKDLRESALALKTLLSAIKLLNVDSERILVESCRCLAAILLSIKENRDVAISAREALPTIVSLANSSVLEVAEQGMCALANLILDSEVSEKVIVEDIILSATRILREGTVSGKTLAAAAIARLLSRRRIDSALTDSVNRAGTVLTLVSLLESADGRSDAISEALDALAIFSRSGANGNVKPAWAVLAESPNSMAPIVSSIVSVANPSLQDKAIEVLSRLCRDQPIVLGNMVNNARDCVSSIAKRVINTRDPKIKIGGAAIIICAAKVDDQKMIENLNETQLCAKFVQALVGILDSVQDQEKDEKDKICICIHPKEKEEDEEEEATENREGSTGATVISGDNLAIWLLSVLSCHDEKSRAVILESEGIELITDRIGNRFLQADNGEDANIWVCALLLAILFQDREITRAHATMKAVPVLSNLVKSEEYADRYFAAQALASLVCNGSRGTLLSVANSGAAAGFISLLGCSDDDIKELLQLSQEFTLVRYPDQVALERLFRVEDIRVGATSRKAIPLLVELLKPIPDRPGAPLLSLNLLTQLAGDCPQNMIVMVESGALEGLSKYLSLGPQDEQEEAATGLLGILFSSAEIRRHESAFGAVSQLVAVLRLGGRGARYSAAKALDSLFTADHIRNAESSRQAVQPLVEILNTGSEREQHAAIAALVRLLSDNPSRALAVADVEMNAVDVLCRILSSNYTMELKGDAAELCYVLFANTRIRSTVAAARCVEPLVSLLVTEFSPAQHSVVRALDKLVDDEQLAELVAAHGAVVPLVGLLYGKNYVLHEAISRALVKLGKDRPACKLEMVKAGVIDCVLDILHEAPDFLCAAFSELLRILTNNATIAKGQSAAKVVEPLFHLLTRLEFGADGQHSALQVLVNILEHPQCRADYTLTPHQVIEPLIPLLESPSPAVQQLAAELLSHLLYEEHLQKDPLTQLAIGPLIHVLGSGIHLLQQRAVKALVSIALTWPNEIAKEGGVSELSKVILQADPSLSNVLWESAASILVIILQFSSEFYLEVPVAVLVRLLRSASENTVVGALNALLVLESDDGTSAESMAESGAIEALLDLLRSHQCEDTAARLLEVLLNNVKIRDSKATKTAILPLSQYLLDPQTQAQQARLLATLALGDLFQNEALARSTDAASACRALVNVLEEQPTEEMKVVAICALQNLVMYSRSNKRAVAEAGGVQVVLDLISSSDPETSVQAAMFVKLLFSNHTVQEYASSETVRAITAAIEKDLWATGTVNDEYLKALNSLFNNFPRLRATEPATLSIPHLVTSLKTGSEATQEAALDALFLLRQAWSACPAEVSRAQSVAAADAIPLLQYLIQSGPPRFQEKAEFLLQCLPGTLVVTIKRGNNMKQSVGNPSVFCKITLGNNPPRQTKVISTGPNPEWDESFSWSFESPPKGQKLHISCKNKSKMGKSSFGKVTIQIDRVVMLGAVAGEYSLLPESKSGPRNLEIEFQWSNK
# UniProt F4I1B4: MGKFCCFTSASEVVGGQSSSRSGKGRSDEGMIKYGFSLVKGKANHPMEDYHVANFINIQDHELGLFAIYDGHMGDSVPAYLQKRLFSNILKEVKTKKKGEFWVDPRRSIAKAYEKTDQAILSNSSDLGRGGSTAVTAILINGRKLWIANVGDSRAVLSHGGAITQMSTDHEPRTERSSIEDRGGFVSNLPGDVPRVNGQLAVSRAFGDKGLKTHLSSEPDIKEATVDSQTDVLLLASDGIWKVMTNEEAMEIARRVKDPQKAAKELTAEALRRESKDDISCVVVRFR
# UniProt Q9ZRE2: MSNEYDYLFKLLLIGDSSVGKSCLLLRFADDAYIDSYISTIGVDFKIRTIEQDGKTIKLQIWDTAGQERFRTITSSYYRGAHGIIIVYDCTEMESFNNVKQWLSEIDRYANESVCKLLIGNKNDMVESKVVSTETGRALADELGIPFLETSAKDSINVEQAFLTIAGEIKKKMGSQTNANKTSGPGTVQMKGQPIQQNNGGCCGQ
# T1: YFP-CESA6 (Arabidopsis thaliana) (UniProt Q94JQ6)
# T1 sequence: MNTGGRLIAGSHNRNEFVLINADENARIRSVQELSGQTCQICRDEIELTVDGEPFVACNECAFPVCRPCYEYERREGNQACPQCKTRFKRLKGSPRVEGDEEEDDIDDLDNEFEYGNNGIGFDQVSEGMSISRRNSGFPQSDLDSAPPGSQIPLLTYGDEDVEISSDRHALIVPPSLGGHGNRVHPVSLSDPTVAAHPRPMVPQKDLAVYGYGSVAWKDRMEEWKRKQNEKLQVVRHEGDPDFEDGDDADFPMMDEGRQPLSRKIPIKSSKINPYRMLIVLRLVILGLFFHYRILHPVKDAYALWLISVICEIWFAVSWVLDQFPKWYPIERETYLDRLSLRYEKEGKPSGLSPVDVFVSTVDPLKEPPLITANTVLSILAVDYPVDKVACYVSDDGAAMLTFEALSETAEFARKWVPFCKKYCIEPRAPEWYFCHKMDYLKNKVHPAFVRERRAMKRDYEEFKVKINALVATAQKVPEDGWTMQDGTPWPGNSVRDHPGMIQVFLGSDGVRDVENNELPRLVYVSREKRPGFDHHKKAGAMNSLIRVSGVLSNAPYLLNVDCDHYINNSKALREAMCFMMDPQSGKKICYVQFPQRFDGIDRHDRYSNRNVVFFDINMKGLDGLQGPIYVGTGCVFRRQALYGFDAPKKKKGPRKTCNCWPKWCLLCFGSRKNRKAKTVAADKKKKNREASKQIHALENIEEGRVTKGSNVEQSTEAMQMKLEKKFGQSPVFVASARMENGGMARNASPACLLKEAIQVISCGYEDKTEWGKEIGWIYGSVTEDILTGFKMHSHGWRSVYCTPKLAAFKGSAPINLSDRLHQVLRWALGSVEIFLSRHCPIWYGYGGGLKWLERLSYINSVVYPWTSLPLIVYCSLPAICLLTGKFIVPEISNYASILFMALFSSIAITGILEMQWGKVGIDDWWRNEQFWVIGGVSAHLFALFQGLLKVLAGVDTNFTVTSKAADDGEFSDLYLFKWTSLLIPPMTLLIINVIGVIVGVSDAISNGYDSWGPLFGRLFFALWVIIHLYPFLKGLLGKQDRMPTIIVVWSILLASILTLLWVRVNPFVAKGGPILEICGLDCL
# T2: LTi6b-GFP (Arabidopsis thaliana) (UniProt Q9ZNS6)
# T2 sequence: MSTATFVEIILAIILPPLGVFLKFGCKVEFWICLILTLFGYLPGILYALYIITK
# T3: YFP-CESA6 (Arabidopsis thaliana), Q94JQ6
# T3 chain: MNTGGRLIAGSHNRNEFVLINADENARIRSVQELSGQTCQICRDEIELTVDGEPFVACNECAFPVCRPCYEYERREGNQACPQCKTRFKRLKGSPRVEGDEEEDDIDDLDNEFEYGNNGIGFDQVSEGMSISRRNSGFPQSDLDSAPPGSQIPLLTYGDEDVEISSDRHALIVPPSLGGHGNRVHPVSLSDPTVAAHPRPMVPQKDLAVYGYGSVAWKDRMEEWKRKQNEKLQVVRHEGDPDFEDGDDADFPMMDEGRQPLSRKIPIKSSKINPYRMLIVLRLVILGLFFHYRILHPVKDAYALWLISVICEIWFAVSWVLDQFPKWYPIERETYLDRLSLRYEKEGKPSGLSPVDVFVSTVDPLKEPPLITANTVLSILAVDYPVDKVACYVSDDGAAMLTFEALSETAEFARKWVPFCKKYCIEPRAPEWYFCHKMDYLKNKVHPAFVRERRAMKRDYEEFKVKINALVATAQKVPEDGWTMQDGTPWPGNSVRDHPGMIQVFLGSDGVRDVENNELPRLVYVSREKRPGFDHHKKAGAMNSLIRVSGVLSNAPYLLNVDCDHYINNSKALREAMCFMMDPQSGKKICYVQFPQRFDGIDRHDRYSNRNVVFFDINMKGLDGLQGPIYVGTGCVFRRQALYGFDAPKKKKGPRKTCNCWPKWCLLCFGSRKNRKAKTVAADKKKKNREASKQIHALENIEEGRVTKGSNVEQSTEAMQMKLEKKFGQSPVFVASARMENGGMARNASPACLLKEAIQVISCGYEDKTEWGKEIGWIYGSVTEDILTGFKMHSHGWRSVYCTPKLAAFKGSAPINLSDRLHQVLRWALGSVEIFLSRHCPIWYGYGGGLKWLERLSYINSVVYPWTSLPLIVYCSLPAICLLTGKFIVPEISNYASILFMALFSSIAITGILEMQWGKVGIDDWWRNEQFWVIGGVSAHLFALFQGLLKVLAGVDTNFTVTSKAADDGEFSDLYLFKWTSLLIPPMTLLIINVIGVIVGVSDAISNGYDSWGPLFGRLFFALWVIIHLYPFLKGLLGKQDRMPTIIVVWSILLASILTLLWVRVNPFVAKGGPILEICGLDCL
# Experiments:
# Assay in all cases: affinity purification with mass spectrometry; GFP-Trap A beads with 5 mg total protein extract of plants expressing YFP-CESA6 or LTi6b-GFP (control), overnight at 4°C; extraction buffer 100 mM Tris-HCl pH 7.5, 150 mM NaCl, 0.2% Nonidet P-40; washes with 150 mM and 500 mM NaCl; on-bead trypsin digestion, LC-MS/MS
# [1] = molecular target: T1, YFP-CESA6 (Arabidopsis thaliana)
# [2] = molecular target: T1, YFP-CESA6 (Arabidopsis thaliana); remark: listed apart in the source
# [3] = molecular target: T2, LTi6b-GFP (Arabidopsis thaliana)
# [4] = molecular target: T3, YFP-CESA6 (Arabidopsis thaliana), Q94JQ6; conditions: remark: other sources report otherwise
Molecule,binding [1],binding [2],further results
CSI1 (from UniProt F4IIM1 1-2150),binds,–,–
PHYTOCHROME-ASSOCIATED PROTEIN PHOSPHATASE TYPE 2C (from UniProt F4I1B4) (enzyme),binds,–,–
RABD1 (from UniProt Q9ZRE2 1-205),binds,–,–
"CESA3 (protein, UniProt Q941L0 1-1065) MESEGETAGKPMKNIVPQTCQICSDNVGKTVDGDRFVACDICSFPVCRPCYEYERKDGNQSCPQCKTRYKRLKGSPAIPGDKDEDGLADEGTVEFNYPQKEKISERMLGWHLTRGKGEEMGEPQYDKEVSHNHLPRLTSRQDTSGEFSAASPERLSVSSTIAGGKRLPYSSDVNQSPNRRIVDPVGLGNVAWKERVDGWKMKQEKNTGPVSTQAASERGGVDIDASTDILADEALLNDEARQPLSRKVSIPSSRINPYRMVIMLRLVILCLFLHYRITNPVPNAFALWLVSVICEIWFALSWILDQFPKWFPVNRETYLDRLALRYDREGEPSQLAAVDIFVSTVDPLKEPPLVTANTVLSILAVDYPVDKVSCYVSDDGAAMLSFESLAETSEFARKWVPFCKKYSIEPRAPEWYFAAKIDYLKDKVQTSFVKDRRAMKREYEEFKIRINALVSKALKCPEEGWVMQDGTPWPGNNTRDHPGMIQVFLGQNGGLDAEGNELPRLVYVSREKRPGFQHHKKAGAMNALVRVSAVLTNGPFILNLDCDHYINNSKALREAMCFLMDPNLGKQVCYVQFPQRFDGIDKNDRYANRNTVFFDINLRGLDGIQGPVYVGTGCVFNRTALYGYEPPIKVKHKKPSLLSKLCGGSRKKNSKAKKESDKKKSGRHTDSTVPVFNLDDIEEGVEGAGFDDEKALLMSQMSLEKRFGQSAVFVASTLMENGGVPPSATPENLLKEAIHVISCGYEDKSDWGMEIGWIYGSVTEDILTGFKMHARGWRSIYCMPKLPAFKGSAPINLSDRLNQVLRWALGSVEILFSRHCPIWYGYNGRLKFLERFAYVNTTIYPITSIPLLMYCTLPAVCLFTNQFIIPQISNIASIWFLSLFLSIFATGILEMRWSGVGIDEWWRNEQFWVIGGVSAHLFAVFQGILKVLAGIDTNFTVTSKASDEDGDFAELYLFKWTTLLIPPTTLLIVNLVGVVAGVSYAINSGYQSWGPLFGKLFFAFWVIVHLYPFLKGLMGRQNRTPTIVVVWSVLLASIFSLLWVRIDPFTSRVTGPDILECGINC",–,binds,–
"KORRIGAN, Q38890 1-621 (protein) MYGRDPWGGPLEINTADSATDDDRSRNLNDLDRAALSRPLDETQQSWLLGPTEQKKKKYVDLGCIIVSRKIFVWTVGTLVAAALLAGFITLIVKTVPRHHPKTPPPDNYTIALHKALKFFNAQKSGKLPKHNNVSWRGNSGLQDGKGETGSFYKDLVGGYYDAGDAIKFNFPMAYAMTMLSWSVIEYSAKYEAAGELTHVKELIKWGTDYFLKTFNSTADSIDDLVSQVGSGNTDDGNTDPNDHYCWMRPEDMDYKRPVTTCNGGCSDLAAEMAAALASASIVFKDNKEYSKKLVHGAKVVYQFGRTRRGRYSAGTAESSKFYNSSMYWDEFIWGGAWMYYATGNVTYLNLITQPTMAKHAGAFWGGPYYGVFSWDNKLAGAQLLLSRLRLFLSPGYPYEEILRTFHNQTSIVMCSYLPIFNKFNRTNGGLIELNHGAPQPLQYSVNAAFLATLYSDYLDAADTPGWYCGPNFYSTSVLRDFARSQIDYILGKNPRKMSYVVGFGTKYPRHVHHRGASIPKNKVKYNCKGGWKWRDSKKPNPNTIEGAMVAGPDKRDGYRDVRMNYNYTEPTLAGNAGLVAALVALSGEEEATGKIDKNTIFSAVPPLFPTPPPPPAPWKP",–,–,binding [4]: no binding

# Continued, in another order:
binding [1],binding [2],Molecule,further results
–,binds,"SYNTAXIN OF PLANTS 71 (protein, UniProt Q9SF29 1-266) MTVIDILTRVDSICKKYDKYDVDKQREANISGDDAFARLYGAFETQIETALEKAELVTKEKNRAAAVAMNAEIRRTKARLSEEVPKLQRLAVKRVKGLTTEELAARNDLVLALPARIEAIPDGTAGGPKSTSAWTPSSTTSRPDIKFDSDGRFDDDYFQESNESSQFRQEYEMRKIKQEQGLDMISEGLDALKNMASDMNEELDRQVPLMDEIDTKVDRATSDLKNTNVRLKDTVNQLRSSRNFCIDIVLLCIVLGIAAYLYNVLK",–
–,binds,"TIP GROWTH … 1 (enzyme, UniProt Q52T38 1-620) MSSEIEVVEEIQSNPKENGESSSKGIEEESLKNDVYTAAAYGDLEKLHRLVECEGSSVSEPDALGYYALQWSALNNRVAVAQYLIEHGGDVNATDHTGQTALHWSAVRGAIQVAELLLQEGARVDATDMYGYQATHVAAQYGQTAFLCHVVSKWNADPDVPDNDGRSPLHWAAYKGFADSIRLLLFLDAYRGRQDKEGCTPLHWAAIRGNLEACTVLVQAGKKEDLMITDKTGLTPAQLAAEKNHRQVSFFLGNARSLLEKRCDGSSPLGRLSKLGLAPVLWIMILLLLLVYTNSVVLASNLPKLTTGIGALAWLGFILATAGLFLFYRCSRKDPGYIRMNIHDPQTMKDDEPLLKIELNNPALLAGNWTQLCATCKIIRPLRAKHCSTCDRCVEQFDHHCPWVSNCVGKKNKWEFFLFLLLEVLAMLITGGVTLARVLSDPSAPSSFGAWMSHVASNHVGALSFLLVEFCLFFSVAVLTVIQASQISRNITTNEMANALRYSYLRGPGGRFRNPYDLGCRRNCSDFLVKGYNEDIECHEEDATQRPEGISMMQMQRNPNLQNGNGHVAIDVNPTHNSQSAHVHSANCSHSHNSKSKSDNVPLGLGLGLSRNPTRPVVSP",binding [3]: no binding
–,binds,"VESICAL TRANSPORT V-SNARE 12 (protein, UniProt Q9SEL5 1-222) MSDVFEGYERQYCELSTNLSRKCHSASVLSNGEEKKGKIAEIKSGIDEADVLIRKMDLEARSLQPSAKAVCLSKLREYKSDLNQLKKEFKRVSSADAKPSSREELMESGMADLHAVSADQRGRLAMSVERLDQSSDRIRESRRLMLETEEVGISIVQDLSQQRQTLLHAHNKLHGVDDAIDKSKKVLTAMSRRMTRNKWIITSVIVALVLAIILIISYKLSH",–
–,binds,"VAMP727 (protein, UniProt Q9M376 1-240) MSQKGLIYSFVAKGTVVLAEHTPYSGNFSTIAVQCLQKLPTNSSKYTYSCDGHTFNFLVDNGFVFLVVADESTGRSVPFVFLERVKEDFKKRYEASIKNDERHPLADEDEDDDLFGDRFSVAYNLDREFGPILKEHMQYCMSHPEEMSKLSKLKAQITEVKGIMMDNIEKVLDRGEKIELLVDKTENLQFQADSFQRQGRQLRRKMWLQSLQMKLMVAGAVFSFILIVWVVACGGFKCSS",–
–,binds,"VAMP722 (protein, UniProt P47192 1-221) MAQQSLIYSFVARGTVILVEFTDFKGNFTSIAAQCLQKLPSSNNKFTYNCDGHTFNYLVENGFTYCVVAVDSAGRQIPMAFLERVKEDFNKRYGGGKAATAQANSLNKEFGSKLKEHMQYCMDHPDEISKLAKVKAQVSEVKGVMMENIEKVLDRGEKIELLVDKTENLRSQAQDFRTQGTQMRRKMWFQNMKIKLIVLAIIIALILIIILSICGGFNCGK",–

# Like-named read-outs stand apart in the source and are kept apart here. Results are given in words; binding and its absence hold for the method and conditions named. Binding seen in cells or lysates may run through a third protein. These calls come from enrichment with a bait or labelling near it, and not all partners need be listed. For some assays here: A no says only that the protein was not detected with the bait. Sequences can lack the tags named with a protein.
